Results on two substances are retold here after article PMC10746255.

The target of this experiment is T1, PhoQ, sensor kinase of the PhoQP two-component system (wild type), fused to the CyaA T25 fragment (E. coli) (UniProt P23837).
T1 sequence: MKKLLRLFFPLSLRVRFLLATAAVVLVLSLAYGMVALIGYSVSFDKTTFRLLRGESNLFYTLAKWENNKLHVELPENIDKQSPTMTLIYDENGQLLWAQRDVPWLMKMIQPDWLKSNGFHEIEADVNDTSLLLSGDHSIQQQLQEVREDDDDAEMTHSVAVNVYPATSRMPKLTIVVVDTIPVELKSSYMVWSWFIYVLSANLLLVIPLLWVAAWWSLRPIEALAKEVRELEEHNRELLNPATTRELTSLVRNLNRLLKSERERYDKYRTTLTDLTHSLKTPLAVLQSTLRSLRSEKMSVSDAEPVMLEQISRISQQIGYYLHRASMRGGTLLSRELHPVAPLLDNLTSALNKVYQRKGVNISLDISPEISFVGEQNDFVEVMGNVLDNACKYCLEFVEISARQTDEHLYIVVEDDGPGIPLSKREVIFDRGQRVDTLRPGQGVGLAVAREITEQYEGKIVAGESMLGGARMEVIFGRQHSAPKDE
Nature of the experiment: two-hybrid; bacterial two-hybrid (CyaA T18/T25 fragments) in cya- E. coli SAM85; T18-MgrB (pUT18C) co-transformed with T25-PhoQ (pAL27); 10 uL culture spotted on LB agar with 1 mM IPTG and 50 ug/mL X-Gal, 37°C ~17 h; blue colonies = interaction, white = no interaction.

Results are given in words; binding and its absence hold for the method and conditions named. Tags and fused reporters may be left off the sequences shown.

For the substance “MgrB mutant mgrB-ΔT100 (frameshift), fused to the CyaA T18 fragment (from UniProt P64512)”, the binding entry is given as “no binding”. In the case of “MgrB mutant mgrB-ΔA98 (frameshift), fused to the CyaA T18 fragment (from UniProt P64512)” it was “no binding”.
